# Experimental data published in PubChem BioAssay AID504444 (National Center for Advancing Translational Sciences (NCATS), 2011).
# The whole screen tested about 360,000 compounds, of which about 7,500 (2.1%) were called active. Inconclusive means that the source gave no clear call. Such entries were picked first, then a sample of the others. Calls come from the whole dose curve; as a rule, active = well fitted inhibition curve with a large enough effect; inconclusive = small, poorly fitted or top-dose-only effect, or effect the other way; inactive = flat fitted curve, though single readings scatter. Where the call is inconclusive, the potency comes from a doubtful curve fit.
# Test: Nrf2 qHTS screen for inhibitors; note: nearly all actives have a fitted effect of over 60% in size
# Settings: A549 ARE-Fluc reporter, luciferase luminescence, 18-24 h; series mostly up to 46 µM
# Summary of the method: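 Nrf2 activity is the BugLite luminescence, read 15 min after reagent at room temperature, following CellTiter-Fluor cytotoxicity readout (30 min, 37C). Compound titrations were applied for 18-24 h to 5000 A549 ARE_Fluc cells/well in 5% FBS OPTI-MEM.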
# Potency is the fitted concentration of half-maximal effect.
row,SMILES,Potency
1,CNC(=O)c1cccn(Cc2ccc(C(F)(F)F)cc2)c1=O,"inconclusive: 29.1 µM [falling, partial curve, poor fit]"
2,CCC(=NCc1ccc2c(c1)OCO2)c1c(O)n(C2CCCCC2)c(=O)[nH]c1=O,active: 11.6 µM
3,COC(=O)C1=C(c2ccccc2OCc2ccccc2)C[C@@H]2CC[C@H]1N2C(=O)NCCOc1ccccc1,"inconclusive: 18.4 µM [falling, single point]"
4,O=P(Nc1ccccc1)(Nc1ccccc1)Oc1cccc(Cl)c1,"inconclusive: 29.1 µM [falling, single point]"
5,CN(C)C(=O)Oc1ccc(C(=O)c2ccccc2)cc1,inactive
6,Cc1n[nH]c(C)c1CCCCOc1ccc([N+](=O)[O-])cc1,"inconclusive: 25.9 µM [falling, single point]"
7,CN1CCN(c2ccc(C(F)(F)F)cc2N)CC1,inactive
8,COc1ccc(C(CNC(=O)Cc2ccc(Cl)c(Cl)c2)N(C)C)cc1 (stereo unspecified),"inconclusive: 18.4 µM [activator, single point]"
9,CCOc1ccc(-c2cc(C)[n+](CCO)c(-c3ccc(OCC)cc3)c2)cc1,active: 11.6 µM
10,CC(=O)[C@@]1(O)CCC2C3CC[C@H]4C[C@@H](O)CC[C@]4(C)C3CC[C@@]21C (stereo partly specified),"inconclusive: 11.6 µM [falling, single point]"
11,CC(C)C(=O)Nc1ccc(N2CCN(C)CC2)c(F)c1,"inconclusive: 29.1 µM [activator, single point]"
12,CN(CC1COc2ccccc2O1)c1nc(-c2cccnc2)nc2ccccc12 (stereo unspecified),"inconclusive: 29.1 µM [falling, single point]"
13,Cc1ccc2c(c1)C1C[N+](C)(CC(=O)c3ccc(Cl)cc3Cl)CCC1N2C(=O)c1ccc(F)cc1 (stereo unspecified),"inconclusive: 2.06 µM [activator, full curve]"
14,CN(C)[C@@H]1C(=O)C(C(N)=O)=C(O)[C@@]2(O)C(=O)C3=C(O)c4c(O)ccc(Cl)c4[C@@](C)(O)C3C[C@@H]12 (stereo partly specified),active: 23.1 µM
15,Cc1cc(/C=C2/C(=O)NC(=O)N(Cc3ccco3)C2=O)c(C)n1-c1ccccc1,"inconclusive: 3.26 µM [activator, full curve]"
16,COc1ccc(-n2c(O)c(C(C)=NCc3ccc4c(c3)OCO4)c(=O)[nH]c2=O)cc1,"inconclusive: 20.6 µM [falling, partial curve, poor fit]"
17,CC(C)NCC(O)c1ccc(C2CCCC2)cc1 (stereo unspecified),inactive
18,c1ccc2c(c1)cc1ccc3cccc4ccc2c1c34,"inconclusive: 18.4 µM [activator, single point]"
19,Cn1c(=O)oc2cc(S(=O)(=O)N3CCCC(C(=O)N4CCN(c5cccc(Cl)c5)CC4)C3)ccc21 (stereo unspecified),active: 18.4 µM
20,CCOC(=O)c1c(NC(=O)C(c2ccccc2)c2ccccc2)sc2c1C1CCN2CC1,"inconclusive: 18.4 µM [falling, partial curve, poor fit]"
21,O=C(CCN1C(=O)COc2ccccc21)N1CCC2(CC1)OCCO2,"inconclusive: 2.59 µM [activator, partial curve]"

row,SMILES,Potency
1,CCC(C(=O)N1CCC2(CC1)OCCO2)c1ccccc1 (stereo unspecified),"inconclusive: 4.11 µM [activator, partial curve, poor fit]"
2,COC(=O)C1=C(c2ccc(OC(F)(F)F)cc2)C[C@@H]2CC[C@H]1N2C(=O)NCCOc1ccccc1,"inconclusive: 10.3 µM [falling, partial curve]"
3,CNC(=O)Nc1ccc(C(=O)N/N=C\C23CC[C@@H](O)CC2(O)CC[C@@H]2[C@@H]3CCC3(C)C(C4=CC(=O)OC4)CCC23O)cc1 (stereo partly specified),"inconclusive: 18.4 µM [falling, single point]"
4,O=C(CSCc1ccccc1)Nc1ccc2c(c1)OCO2,"inconclusive: 9.2 µM [activator, partial curve]"
5,CN(C)c1c([N+](=O)[O-])cc(N2C(=O)C=CC2=O)cc1[N+](=O)[O-],"inconclusive: 6.51 µM [falling, single point]"
6,CCOP(=O)(OCC)C(Nc1ccccc1)c1cc(OC)ccc1OC (stereo unspecified),"inconclusive: 4.61 µM [falling, single point]"
7,C[N+](C)(C)CC#CCOC(=O)Nc1cccc(Cl)c1,inactive
8,C=C1C(=O)O[C@@H]2C[C@@H](C)[C@@H]3C=CC(=O)[C@@]3(C)[C@@H](O)[C@H]12,active: 3.66 µM
9,COc1cc2cc(c1Cl)N(C)C(=O)CC(OC(=O)C(C)N(C)C(C)=O)C1(C)OC1C(C)C1CC(O)(NC(=O)O1)C(OC)C=CC=C(C)C2 (stereo unspecified),"inconclusive: 0.517 µM [activator, full curve, poor fit]"
10,O=C(O)c1cccc2nc3ccccc3nc12,active: 2.31 µM
11,Nc1c(C(=O)NCCN2CCOCC2)c2nc3ccccc3nc2n1Cc1ccco1,inactive
12,CCCCn1c(=O)c(C(=O)NC(C)c2ccccc2)c(O)c2ccccc21 (stereo unspecified),"inconclusive: 32.6 µM [falling, single point]"
13,CC(C)(C)c1ccc(C(=O)NC(=S)Nn2cnnc2)cc1,"inconclusive: 2.59 µM [activator, full curve]"
14,Cc1cc(-c2nc3ccccc3s2)ccc1NC(=O)c1cc(Cl)ccc1Cl,"inconclusive: 0.58 µM [activator, partial curve, poor fit]"
15,Cc1nc2ccc(Cl)cc2c(=O)n1-c1ccc([N+](=O)[O-])cc1,"inconclusive: 0.0058 µM [falling, full curve, poor fit]"
16,CCN(CC)C(=O)c1ccc(NC(=O)CCn2nc(-c3ccc(Cl)cc3)c3ccccc3c2=O)cc1,active: 25.9 µM
17,Cc1ccccc1[N+](=O)[O-],inactive
18,CCCC/C(C)=C/[C@@H](NP(=O)(c1ccccc1)c1ccccc1)c1ccccc1,"inconclusive: 29.1 µM [falling, single point]"
19,COc1ccc(P2(=O)Nc3ccccc3N2)cc1,"inconclusive: 13 µM [activator, partial curve]"
20,Cc1ccc(OCC(=O)N2CCN(Cc3ccc([N+](=O)[O-])cc3)CC2)cc1,"inconclusive: 18.4 µM [falling, single point]"

# Quoted at random: three entries already listed
row,SMILES,Potency
16,CCN(CC)C(=O)c1ccc(NC(=O)CCn2nc(-c3ccc(Cl)cc3)c3ccccc3c2=O)cc1,active: 25.9 µM
5,CN(C)c1c([N+](=O)[O-])cc(N2C(=O)C=CC2=O)cc1[N+](=O)[O-],"inconclusive: 6.51 µM [falling, single point]"
7,C[N+](C)(C)CC#CCOC(=O)Nc1cccc(Cl)c1,inactive
